Test results as given in patent publication US8754049B2 (APEPTICO Forschung und Entwicklung GmbH, priority 2010, dated 2014).
The same purity stands for every peptide and may come from a single statement. For some assays here: Strings that start with PEPTIDE1 are HELM notation: dots part the residues, brackets hold end groups and non-standard residues.

experiment: peptide synthesis; conditions: whole synthesis, trifluoroacetic acid salt

Final HPLC purity, more than 95%:
PEPTIDE1{K.G.Q.R.E.T.P.E.G.A.E.A.K.P.W.Y.G}$PEPTIDE1,PEPTIDE1,1:R3-17:R2$$$V2.0, PEPTIDE1{[Ahp].G.Q.R.E.T.P.E.G.A.E.A.K.P.W.Y}$PEPTIDE1,PEPTIDE1,1:R1-16:R2$$$V2.0, PEPTIDE1{[Ava].G.Q.R.E.T.P.E.G.A.E.A.K.P.W.Y.G}$PEPTIDE1,PEPTIDE1,1:R1-17:R2$$$V2.0, PEPTIDE1{[GABA].G.Q.R.E.T.P.E.G.A.E.A.K.P.W.Y.D}$PEPTIDE1,PEPTIDE1,1:R1-17:R3$$$V2.0, PEPTIDE1{[GABA].G.Q.R.E.T.P.E.G.A.E.A.K.P.W.Y.G}$PEPTIDE1,PEPTIDE1,1:R1-17:R2$$$V2.0, PEPTIDE1{[Orn].G.Q.R.E.T.P.E.G.A.E.A.K.P.W.Y.G}$PEPTIDE1,PEPTIDE1,1:R3-17:R2$$$V2.0, PEPTIDE1{[bAla].G.Q.R.E.T.P.E.G.A.E.A.K.P.W.Y.E}$PEPTIDE1,PEPTIDE1,1:R1-17:R3$$$V2.0

experiment: general procedure: Fmoc solid-phase peptide synthesis; conditions: whole synthesis, reverse HPLC, trifluoroacetic acid salt, head-to-tail ring

Final HPLC purity, more than 95%:
[6-amino-hexanoic acid-GQRETPEGAEAKPWYG]
